Test results from the supplement of paper PMC12067093, “Discovery and optimisation of a covalent ligand for TRIM25 and its application to targeted protein ubiquitination” (Chemical Science, 2025).
The list shows a part of the results.

Compound: Cc1cc(ccc1-c1ccccc1)C(=O)N1CCCN(CC1)C(=O)CCl [compound 10]
Test: probe-labelled cysteine peptide fold change vs DMSO (competition) (log2 fold change); higher = less target engagement (more negative = stronger competition)
Settings: THP-1, incubation time: 4 h
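Further: competitive profiling in live THP-1 cells: cysteine peptides tagged with an iodoacetamide desthiobiotin (IA-DTB) probe, intensity after compound treatment relative to DMSO-treated cells.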

Target: PFKL_P17858_708_VFANAPDSACVIGLKK (UniProt P17858)
- probe-labelled cysteine peptide fold change (10 µM): -0.122
- probe-labelled cysteine peptide fold change (50 µM): -0.191

Target: PHF6_Q8IWS0_212+215_CGFCHVGEEENEAR (UniProt Q8IWS0)
- probe-labelled cysteine peptide fold change (10 µM): 0.155
- probe-labelled cysteine peptide fold change (50 µM): -0.762

Target: PGK1_P00558_316_TGQATVASGIPAGWMGLDCGPESSK (UniProt P00558)
- probe-labelled cysteine peptide fold change (10 µM): -0.217
- probe-labelled cysteine peptide fold change (50 µM): 0.0673

Target: PIGT_Q969N2_195_LLPCSSK (UniProt Q969N2)
- probe-labelled cysteine peptide fold change (10 µM): -0.244
- probe-labelled cysteine peptide fold change (50 µM): 0.0166

Target: PHF10_Q8WUB8_451_TCIICGQPHHEEEMMFCDMCDR (UniProt Q8WUB8)
- probe-labelled cysteine peptide fold change (10 µM): -0.00578
- probe-labelled cysteine peptide fold change (50 µM): 0.164

Target: PHYH_O14832_205_NNGCLVVLPGTHK (UniProt O14832)
- probe-labelled cysteine peptide fold change (10 µM): 0.163
- probe-labelled cysteine peptide fold change (50 µM): 0.091

Target: PGGT1B_P53609_369_QCSENVHIST (UniProt P53609)
- probe-labelled cysteine peptide fold change (10 µM): -0.166
- probe-labelled cysteine peptide fold change (50 µM): -0.254

Target: PHKA1_P46020_24_LVQQTILCHQNPVTGLLPASYDQK (UniProt P46020)
- probe-labelled cysteine peptide fold change (10 µM): -0.175
- probe-labelled cysteine peptide fold change (50 µM): -0.254

Target: PGLYRP2_Q96PD5_379_EFTEAFLGCPAIHPR (UniProt Q96PD5)
- probe-labelled cysteine peptide fold change (10 µM): -0.1
- probe-labelled cysteine peptide fold change (50 µM): -0.0269

Target: PFN1_P07737_71_CSVIRDSLLQDGEFSMDLR (UniProt P07737)
- probe-labelled cysteine peptide fold change (10 µM): -0.162
- probe-labelled cysteine peptide fold change (50 µM): -0.344

Target: PFKL_P17858_351_LPLMECVQMTK (UniProt P17858)
- probe-labelled cysteine peptide fold change (10 µM): 0.113
- probe-labelled cysteine peptide fold change (50 µM): -0.00912

Target: PIGT_Q969N2_182_EVVCTENLTPWKK (UniProt Q969N2)
- probe-labelled cysteine peptide fold change (10 µM): -0.128
- probe-labelled cysteine peptide fold change (50 µM): -0.12

Target: PELO_Q9BRX2_175_GNCSQHDR (UniProt Q9BRX2)
- probe-labelled cysteine peptide fold change (10 µM): 0.249
- probe-labelled cysteine peptide fold change (50 µM): 0.198

Target: PHF5A_Q7RTV0_33_CVICDSYVRPCTLVR (UniProt Q7RTV0)
- probe-labelled cysteine peptide fold change (10 µM): 0.141
- probe-labelled cysteine peptide fold change (50 µM): 0.0491

Target: PFAS_O15067_66_KLMWLFGCPLLLDDVAR (UniProt O15067)
- probe-labelled cysteine peptide fold change (10 µM): -0.229
- probe-labelled cysteine peptide fold change (50 µM): -0.429

Target: PEBP1_P30086_133_YVWLVYEQDRPLKCDEPILSNR (UniProt P30086)
- probe-labelled cysteine peptide fold change (10 µM): -0.314
- probe-labelled cysteine peptide fold change (50 µM): -0.84

Target: PHIP_Q8WWQ0_1692_KLQYAKPEDLEQNNVHPIRDEVLPSSTCNFLSETNNVK (UniProt Q8WWQ0)
- probe-labelled cysteine peptide fold change (10 µM): 0.0624
- probe-labelled cysteine peptide fold change (50 µM): -0.454

Target: PGK1_P00558_367+379_GCITIIGGGDTATCCAK (UniProt P00558)
- probe-labelled cysteine peptide fold change (10 µM): 0.296
- probe-labelled cysteine peptide fold change (50 µM): -0.173

Target: PECAM1_P16284_476_DNPTEDVEYQCVADNCHSHAK (UniProt P16284)
- probe-labelled cysteine peptide fold change (10 µM): -0.134
- probe-labelled cysteine peptide fold change (50 µM): -0.196

Target: PHYH_O14832_280+287_AISCHFASADCHYIDVK (UniProt O14832)
- probe-labelled cysteine peptide fold change (10 µM): -0.0227
- probe-labelled cysteine peptide fold change (50 µM): 0.0594

Target: PEX14_O75381_342_MEVQGEEEKREDKEDEEDEEDDDVSHVDEEDCLGVQR (UniProt O75381)
- probe-labelled cysteine peptide fold change (10 µM): -0.196
- probe-labelled cysteine peptide fold change (50 µM): -0.48

Target: PHF12_Q96QT6_315_WMCPNHIEHVVLNQK (UniProt Q96QT6)
- probe-labelled cysteine peptide fold change (10 µM): 0.384
- probe-labelled cysteine peptide fold change (50 µM): 0.325

Target: PGM2_Q96G03_484_ASYFICHDQETIKK (UniProt Q96G03)
- probe-labelled cysteine peptide fold change (10 µM): -0.0162
- probe-labelled cysteine peptide fold change (50 µM): 0.224

Target: PFAS_O15067_336_IRDVQCTGR (UniProt O15067)
- probe-labelled cysteine peptide fold change (10 µM): -0.089
- probe-labelled cysteine peptide fold change (50 µM): -0.0693

Target: PHF2_O75151_8_ATVPVYCVCR (UniProt O75151)
- probe-labelled cysteine peptide fold change (10 µM): 0.00783
- probe-labelled cysteine peptide fold change (50 µM): -0.0398

Target: PHF6_Q8IWS0_82_LMCSLCHCPGATIGCDVK (UniProt Q8IWS0)
- probe-labelled cysteine peptide fold change (10 µM): 0.283
- probe-labelled cysteine peptide fold change (50 µM): 0.172

Target: PGK1_P00558_380_GCITIIGGGDTATCCAK (UniProt P00558)
- probe-labelled cysteine peptide fold change (10 µM): 0.0121
- probe-labelled cysteine peptide fold change (50 µM): -0.0333

Target: PFKFB3_Q16875_427_LTPVAYGCR (UniProt Q16875)
- probe-labelled cysteine peptide fold change (10 µM): -0.0504
- probe-labelled cysteine peptide fold change (50 µM): 0.0513

Target: PHKB_Q93100-2_3_ACSPDAVVSPSSAFLR (UniProt Q93100)
- probe-labelled cysteine peptide fold change (10 µM): -0.187
- probe-labelled cysteine peptide fold change (50 µM): -0.468
